System: seizure threshold current for tonic hind limb extensor convulsions in mice
Test: Maximal electroshock seizure threshold (MEST) test in the mouse
Conditions: 2.5 mg/kg i.p., pre-treatment time 30 min
Experimental: The efficacy of 6-OH CBD was tested in a mouse model of generalised seizure, the maximal electroshock seizure threshold (MEST) test.
In the MEST test the ability of a drug to alter the seizure threshold current required to induce hind limb tonic extensor convulsions is measured according to an “up and down” method of shock titration (Kimball et al., 1957). An increase in seizure threshold is indicative of anti-convulsant effect.
The ability of a test compound to alter the stimulus intensity, expressed as current (mA), required to induce the presence of tonic hind limb extensor convulsions, is assessed in the MEST.
Naïve mice were acclimatised to the procedure room in their home cages for up to 7 days, with food and water available ad libitum.
All animals were weighed at the beginning of the study and randomly assigned to treatment groups based on a mean distribution of body weight across groups.
The first animal within a treatment group was given a shock at the expected or estimated CC50 current. For subsequent animals, the current was lowered or raised depending on the convulsions outcome from the preceding animal. […]
6-OH CBD effects were also calculated as percentage change in CC50 from the vehicle control group.
Significant difference between drug-treated animals and controls were assessed according to Litchfield and Wilcoxon (1949).

CN1C(=O)CN=C(c2ccccc2)c2cc(Cl)ccc21 [Diazepam, diazepam, reference compound]
CC50 ± SEM: 48.8 ± 1.1 mA | CC50 ± SEM (listed as diazepam): 48.8 mA

From patent US12383512B2, “Cannabidiol-type cannabinoid compound” (Jazz Pharmaceuticals Research UK LImited, priority 2019, dated 2025)
